This passage reports binding results from paper PMC9335864.

The test concerns the target p97 (endogenous) (human (endogenous in U2OS)) (UniProt P55072). Kind of test: co-IP; co-IP of p97 from U2OS cells expressing scFv-A06 (Figure S10).

Results are given in words; binding and its absence hold for the method and conditions named. In cells and extracts the contact can be indirect. Some binding calls cover weakened binding; strength is not graded here.

B1: p47 (endogenous) (protein, UniProt Q9UNZ2 1-370)
chain: MAAERQEALREFVAVTGAEEDRARFFLESAGWDLQIALASFYEDGGDEDIVTISQATPSSVSRGTAPSDNRVTSFRDLIHDQDEDEEEEEGQRFYAGGSERSGQQIVGPPRKKSPNELVDDLFKGAKEHGAVAVERVTKSPGETSKPRPFAGGGYRLGAAPEEESAYVAGEKRQHSSQDVHVVLKLWKSGFSLDNGELRSYQDPSNAQFLESIRRGEVPAELRRLAHGGQVNLDMEDHRDEDFVKPKGAFKAFTGEGQKLGSTAPQVLSTSSPAQQAENEAKASSSILIDESEPTTNIQIRLADGGRLVQKFNHSHRISDIRLFIVDARPAMAATSFILMTTFPNKELADESQTLKEANLLNAVIVQRLT
Regarding B1, the binding result was “binds”.
